{"source": "PubChem BioAssay AID504467", "about": "(National Center for Advancing Translational Sciences (NCATS), 2011)", "note": "Screen size: about 330,000 compounds; about 7,700 (2.3%) were called active. The inconclusive results got no clear call from the source; some entries with a clear call stand among them for comparison. Calls come from the whole dose curve; as a rule, active = well fitted inhibition curve with a large enough effect; inconclusive = small, poorly fitted or top-dose-only effect, or effect the other way; inactive = flat fitted curve, though single readings scatter. Where the call is inconclusive, the potency comes from a doubtful curve fit. Potency is the fitted concentration of half-maximal effect."}
{"test": "qHTS screen for small molecules that inhibit ELG1-dependent DNA repair in human embryonic kidney (HEK293T) cells expressing luciferase-tagged ELG1; note: nearly all actives have a fitted effect of over 55% in size", "details": "HEK293T ELG1-luciferase reporter, luminescence, 16 h, DNA damage induced by 5-fluorouridine; series mostly up to 46.1 µM", "in_short": "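Overnight (16 hr) co-exposure of 2,000 cells/well to 5-fluorouridine and compound at 37 °C preceded detection. Luciferase was quantified via ONE-Glo luminescence; loss of signal denotes inhibition.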"}
{"smiles": "CCOc1ccc(NC(=O)COC(=O)CCCc2c[nH]c3ccccc23)cc1", "Potency": "inconclusive: 5.17 µM [activator, partial curve, poor fit]"}
{"smiles": "COc1ccc(/C=N/Nc2nc(-c3cccnc3)nc3ccccc23)c(OC)c1", "Potency": "inconclusive: 20.6 µM [inhibitor, single point]"}
{"smiles": "Cc1ccc(C(C(=O)NC2CCCCC2)N(Cc2ccccc2)C(=O)Cc2c[nH]c3ccccc23)o1", "note": "(stereo not drawn)", "Potency": "inconclusive: 18.4 µM [inhibitor, partial curve]"}
{"smiles": "Cc1ccc(N2CCN(S(=O)(=O)c3ccc4c(c3)NC(=O)C(C)C(=O)N4)CC2C)cc1", "note": "(stereo not drawn)", "Potency": "inconclusive: 20.6 µM [inhibitor, single point]"}
{"smiles": "CCOC(=O)c1nnn(CC(=O)N2N=C(c3ccc(Cl)cc3)CC2c2ccccc2)c1C(=O)OCC", "note": "(stereo not drawn)", "Potency": "inconclusive: 14.6 µM [inhibitor, partial curve, poor fit]"}
{"smiles": "COc1ccccc1/C=C(/C(=O)OCC(=O)Nc1cc(C)ccc1C)c1ccccc1", "Potency": "inactive"}
{"smiles": "CCN(CC(=O)Nc1c(F)cccc1F)C(=O)CNC(=O)c1ccc(C)s1", "Potency": "inconclusive: 14.6 µM [activator, partial curve]"}
{"smiles": "O=C(Nc1cccc(Cl)c1)c1ccc(NC2=NC3CS(=O)(=O)CC3S2)cc1", "note": "(stereo not drawn)", "Potency": "inconclusive: 14.6 µM [inhibitor, partial curve, poor fit]"}
{"smiles": "CC(=O)Nc1cccc(NC(=O)C(=O)c2cn(CC(=O)N3CCCCC3)c3ccccc23)c1", "Potency": "inactive"}
{"smiles": "CC(C)c1ccc(C2CC(c3ccc(Br)cc3)=NN2C(N)=S)cc1", "note": "(stereo not drawn)", "Potency": "inconclusive: 18.4 µM [activator, partial curve]"}
{"smiles": "COc1ccnc(Oc2ccc(C)cc2C)c1C#N", "Potency": "inconclusive: 29.1 µM [activator, single point]"}
{"smiles": "Cc1cccc(NC(=O)C2(c3cccs3)CCOCC2)n1", "Potency": "inactive"}
{"smiles": "Cc1cnc(C(=O)OCC(=O)N2C(C)CCCC2C)cn1", "note": "(stereo not drawn)", "Potency": "inactive"}
{"smiles": "COc1ccc(-c2noc(CCCc3ccccc3)n2)cc1OC", "Potency": "inactive"}
{"smiles": "COc1cc(/C=C(\\NC(=O)c2ccccc2)C(=O)NCC(=O)O)c([N+](=O)[O-])cc1OC", "Potency": "inconclusive: 20.6 µM [activator, single point]"}
{"smiles": "CCOC(=O)c1cc(C)n(-c2ccccc2)c1C", "Potency": "inconclusive: 3.66 µM [activator, single point]"}
{"smiles": "CCOc1ccc(C(=O)OCc2nnc(-c3cccs3)o2)cc1OC", "Potency": "inconclusive: 32.6 µM [inhibitor, partial curve, poor fit]"}
{"smiles": "O=C(CCN1C(=O)c2ccccc2C1=O)C1=NN[C@@H]2C(=O)N(c3cccc(F)c3)C(=O)[C@H]12", "Potency": "inactive"}
